Measured values reported in US12552800B2, “Compounds for diagnosis” (AC IMMUNE SA, priority 2020, dated 2026).
For at least one compound, name, drawing or mass did not settle the structure.

By UniProt entry, the sequences of proteins in these tests, tags left out. Residues count along the entry.
UniProt P05067, 672-713 limits assumed: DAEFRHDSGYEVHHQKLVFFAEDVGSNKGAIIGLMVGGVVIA

Legend:
[1] = biological target: T1, Abeta pathological aggregates (Homo sapiens, UniProt P05067); experiment: Radiobinding competition assay against [^3H]-Abeta-Ref on AD brain homogenates (example compound 4); format: binding; settings: in words
T1 construct: Abeta pathological aggregates present in the human AD brain homogenates; from tissue; host or cells: human AD donor brain, Triton/sucrose-insoluble 100,000 x g pellet
Protocol: The procedure was adapted from the protocol described in Bagchi et al., 2013. Frozen tissue blocks from AD donors were thawed on ice and homogenized in high salt buffer (50 mM Tris-HCl pH 7.5, 0.75M NaCl, 5 mM EDTA) supplemented with protease inhibitors (Complete; Roche 11697498001) at 4° C. using a glass Dounce homogenizer. The homogenate was centrifuged at 100,000×g (38,000 RPM) in an ultracentrifuge (Beckman, XL100K) for one hour at 4° C. using a pre-cooled 70.1 rotor (Beckman, 342184). Pellets were resuspended in high salt buffer supplemented with 1% Triton X-100 and homogenized at 4° C. using a glass Dounce homogenizer. The homogenates were centrifuged again at 100,000×g (38,000 RPM, 70.1 rotor) for one hour at 4° C. Pellets were resuspended in high salt buffer supplemented with 1% Triton X-100 and 1 M sucrose and homogenized at 4° C. using a glass Dounce homogenizer. The homogenates were centrifuged at 100,000×g (38,000 RPM, 70.1 rotor) for one hour at 4° C. […]
A fixed concentration of AD insoluble fraction was incubated with a tritiated reference Abeta ligand ([^3H]-Abeta-Ref) at 10 nM and increasing concentrations of non-radiolabelled example compound 1 in the range of 400 pM to 2 μM for two hours at RT. […] The filters were analyzed on a Microbeta2 scintillation counter (PerkinElmer). […]

[2] = biological target: T2, PD brain-derived a-syn aggregates (Homo sapiens, UniProt P37840); experiment: Micro-radiobinding competition assay against [^3H]-a-syn-Ref; format: binding; settings: in words
T2 construct: from tissue; host or cells: human PD donor brain, sarkosyl-insoluble 100,000 x g pellet
Protocol: The procedure was adapted from the protocol described in Spillantini et al., 1998. Frozen tissue blocks from PD donors were thawed on ice and homogenized using a glass dounce homogenizer. The homogenate was then centrifuged at 11,000×g (12,700 RPM) in an ultracentrifuge (Beckman, XL100K) for 20 minutes at 4° C. using a pre-cooled 70.1 rotor (Beckman, 342184). Pellets were resuspended in extraction buffer [10 mM Tris-HCl pH 7.4, 10% sucrose, […], 1% protease inhibitor (Calbiochem 539131), 1 mM EGTA, 1% phosphatase inhibitor (Sigma P5726 and P0044)] and centrifuged at 15,000×g (14,800 RPM, a 70.1 Ti rotor) for 20 minutes at 4° C. Pellets were discarded and sarkosyl (20% stock solution, Sigma L7414) was added to the supernatants to a final concentration of 1% at room temperature for one hour. This solution was then centrifuged at 100,000×g (38,000 RPM, 70.1 Ti rotor) for one hour at 4° C. […]
PD brain-derived a-syn aggregates were spotted onto microarray slides. […] Following exposure, phosphor storage screens were scanned with a laser imaging system (Typhoon FLA 7000) to readout the signal from the radiobinding experiments described above. Quantification of the signal was performed using the ImageJ software package. […]
Example compounds were assessed for their potency to compete with the binding of [3H] radiolabelled reference ligand to PD patient brain-derived a-syn aggregates. […]

Structure (SMILES)	selectivity for a-syn over Abeta pathological aggregates [1]	binding to PD brain-derived a-syn aggregates [2]
Cn1cc(N2Cc3nn(-c4ccc(N5CC[C@@H](F)C5)nc4)cc3C2=O)cn1 [Example 4]	good selectivity for a-syn over Abeta	
O=C1c2cn(-c3ccc(N4CC[C@@H](F)C4)nc3)nc2CN1c1ccncc1 [Example 2]		good binding
